Among the data in patent US20190336574A1 (TRUSTEES OF PRINCETON UNIVERSITY, published 2019) are binding values, retold here.

Where a chain is given by its changes, count along the chain named. Names may count otherwise. No constants are given. Whether binding was seen depends on the method and setting. For part of these data: In cells and extracts the contact can be indirect. Some binding calls cover weakened binding; strength is not graded here. Tags and fused reporters may be left off the sequences shown.

Assay [1] deals with T1, GST-MTDH (386-407), wild type (human).
T1 sequence: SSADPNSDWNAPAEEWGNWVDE
Briefly: BLI, GST-MTDH (386-407) on anti-GST sensors, His8-SND1 (16-339) 0.1-3.2 µM in solution. On the technique in general: Biolayer interferometry detects binding as a change in optical thickness at a sensor tip.

Assay [2] concerns the target T2, His6-SND1ΔC (SND1 residues 1-339) (human, UniProt Q7KZF4 1-339).
T2 construct: not shown: N-terminal His tag (His6, His8 or His) with TEV site, pQlink vector
T2 sequence: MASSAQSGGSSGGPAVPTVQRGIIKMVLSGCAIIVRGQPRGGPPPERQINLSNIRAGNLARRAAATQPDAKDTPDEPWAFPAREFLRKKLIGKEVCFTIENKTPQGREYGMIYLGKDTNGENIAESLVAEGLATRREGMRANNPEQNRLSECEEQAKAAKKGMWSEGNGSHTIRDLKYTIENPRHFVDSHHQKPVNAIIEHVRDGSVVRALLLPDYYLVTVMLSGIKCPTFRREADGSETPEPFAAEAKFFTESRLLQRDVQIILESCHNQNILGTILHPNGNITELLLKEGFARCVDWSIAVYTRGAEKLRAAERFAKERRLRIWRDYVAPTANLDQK
Briefly: GST pull-down of His6-SND1ΔC, SDS-PAGE, Coomassie. From the text: FIGS. 7A-E represents determination of key regions and residues mediating the MTDH-SND1 interaction. (FIG. 7A) Schematics of MTDH fragments and mutants with indicated SND1-binding capability. + indicates binding and − indicates no binding based on results shown below. Two putative nuclear localization signals are residues 432-451 for NLS2 and residues 561-580 for NLS3. […] (FIG. 7B) Pulldown of His6-SND1ΔC by GST-tagged MTDH fragments with indicated boundaries. The bound proteins were examined by SDS-PAGE and visualized by Coomassie blue staining. […] For (FIG. 7B) and (FIG. 7C), 1/10 of the His6-SND1ΔC input was shown, and GST alone was used as a negative control. Representative results of 3 independent experiments are shown. (FIG. 7D, FIG. 7E) Lysates from HEK293T cells expressing the indicated ectopic human SND1, AGO2 or MTDH were immunoprecipitated with anti-Myc and immunoblotted with the indicated antibodies.
TPM1 comprises mutations D389R, D393R and W394D. TPM2 comprises mutations E399R, E400R and W401D. TPM3 comprises mutations W404D, D406R and E407R. […] The mutations are also set out in Table 3.

B1: His-SND1 (16-339), SN1/2 domains, wild type (other)
chain: VPTVQRGIIKMVLSGCAIIVRGQPRGGPPPERQINLSNIRAGNLARRAAATQPDAKDTPDEPWAFPAREFLRKKLIGKEVCFTIENKTPQGREYGMIYLGKDTNGENIAESLVAEGLATRREGMRANNPEQNRLSECEEQAKAAKKGMWSEGNGSHTIRDLKYTIENPRHFVDSHHQKPVNAIIEHVRDGSVVRALLLPDYYLVTVMLSGIKCPTFRREADGSETPEPFAAEAKFFTESRLLQRDVQIILESCHNQNILGTILHPNGNITELLLKEGFARCVDWSIAVYTRGAEKLRAAERFAKERRLRIWRDYVAPTANLDQK
notes: also called His6-SND1 harboring the SN1/2 domains; not shown: N-terminal His tag (His6, His8 or His) with TEV site, pQlink vector
As to B1, the binding result in assay [1] is given as “binds”.

B2: GST-MTDH (364-582), wild type (other)
chain: YQWDVSRNQPYIDDEWSGLNGLSSADPNSDWNAPAEEWGNWVDEERASLLKSQEPIPDDQKVSDDDKEKGEGALPTGKSKKKKKKKKKQGEDNSTAQDTEELEKEIREDLPVNTSKTRPKQEKAFSLKTISTSDPAEVLVKNSQPIKTLPPATSTEPSVILSKSDSDKSSSQVPPILQETDKSKSNTKQNSVPPSQTKSETSWESPKQIKKKKKARRET
notes: not shown: N-terminal GST tag with TEV site, pQlink vector
Consider B2, for which the binding result in assay [2] is reported as “binds”.

B3: GST-MTDH (364-582) TPM3 (W404D, D406R, E407R) (protein, not shown: a dimerising Fc or GST)
chain: B2 chain with W41D, D43R, E44R
Regarding B3, in assay [2], the binding result is reported as “binds”.
